Assay results from article PMC12208777.
These are yes or no findings as the source states them, for the method shown. In cells and extracts the contact can be indirect. A yes stands for co-enrichment or nearness to the bait. Other partners may have been found.

By UniProt entry, the sequences of proteins in these tests, tags left out.
UniProt P21271: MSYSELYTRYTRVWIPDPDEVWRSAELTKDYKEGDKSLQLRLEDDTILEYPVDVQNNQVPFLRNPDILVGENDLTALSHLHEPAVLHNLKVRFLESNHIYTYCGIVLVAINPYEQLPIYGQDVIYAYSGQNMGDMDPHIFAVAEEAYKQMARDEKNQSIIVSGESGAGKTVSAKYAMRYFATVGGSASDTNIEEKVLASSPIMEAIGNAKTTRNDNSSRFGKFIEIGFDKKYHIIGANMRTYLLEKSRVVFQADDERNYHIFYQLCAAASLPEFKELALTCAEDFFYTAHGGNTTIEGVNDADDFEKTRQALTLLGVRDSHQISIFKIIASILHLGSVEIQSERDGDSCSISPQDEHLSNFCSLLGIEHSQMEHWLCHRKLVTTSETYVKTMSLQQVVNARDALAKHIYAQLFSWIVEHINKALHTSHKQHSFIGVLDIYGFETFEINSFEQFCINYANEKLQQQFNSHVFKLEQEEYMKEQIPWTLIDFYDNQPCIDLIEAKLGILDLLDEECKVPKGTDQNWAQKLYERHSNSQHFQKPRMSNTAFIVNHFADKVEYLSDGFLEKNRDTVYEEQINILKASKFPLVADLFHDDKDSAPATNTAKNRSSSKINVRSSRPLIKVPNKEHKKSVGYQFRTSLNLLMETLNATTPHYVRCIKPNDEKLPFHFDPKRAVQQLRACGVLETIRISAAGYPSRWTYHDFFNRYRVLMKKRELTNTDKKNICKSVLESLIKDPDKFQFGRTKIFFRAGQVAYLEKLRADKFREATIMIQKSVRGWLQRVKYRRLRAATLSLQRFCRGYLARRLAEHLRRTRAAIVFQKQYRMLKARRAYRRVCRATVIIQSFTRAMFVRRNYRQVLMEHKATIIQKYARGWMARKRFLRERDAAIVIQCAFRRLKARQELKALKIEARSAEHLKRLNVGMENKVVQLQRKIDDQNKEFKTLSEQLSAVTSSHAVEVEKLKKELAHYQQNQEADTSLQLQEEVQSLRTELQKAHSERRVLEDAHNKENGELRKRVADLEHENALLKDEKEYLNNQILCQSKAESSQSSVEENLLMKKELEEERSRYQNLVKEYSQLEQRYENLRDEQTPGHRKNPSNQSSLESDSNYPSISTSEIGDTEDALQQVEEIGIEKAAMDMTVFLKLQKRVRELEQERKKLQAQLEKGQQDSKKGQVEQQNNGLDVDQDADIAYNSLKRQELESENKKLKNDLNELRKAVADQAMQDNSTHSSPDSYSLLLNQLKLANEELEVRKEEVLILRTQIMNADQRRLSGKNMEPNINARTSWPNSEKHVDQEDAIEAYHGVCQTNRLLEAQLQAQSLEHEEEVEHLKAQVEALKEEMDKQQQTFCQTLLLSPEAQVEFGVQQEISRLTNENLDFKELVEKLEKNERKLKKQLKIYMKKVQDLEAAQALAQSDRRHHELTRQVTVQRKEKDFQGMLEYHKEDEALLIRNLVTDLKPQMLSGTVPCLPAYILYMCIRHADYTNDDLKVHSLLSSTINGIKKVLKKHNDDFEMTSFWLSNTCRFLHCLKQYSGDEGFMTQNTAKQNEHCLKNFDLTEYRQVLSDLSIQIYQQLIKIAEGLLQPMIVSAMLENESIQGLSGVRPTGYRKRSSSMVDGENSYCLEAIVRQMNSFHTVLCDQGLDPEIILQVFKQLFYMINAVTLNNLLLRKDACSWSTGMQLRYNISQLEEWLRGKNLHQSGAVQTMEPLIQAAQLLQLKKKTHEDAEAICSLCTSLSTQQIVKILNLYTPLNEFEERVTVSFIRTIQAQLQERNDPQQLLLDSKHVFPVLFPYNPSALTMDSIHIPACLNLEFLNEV

Target: myosin-5b (mouse (endogenous in mouse heart and adult mouse cardiomyocytes)) (UniProt P21271)
Assay: affinity purification with mass spectrometry; myosin-5b immunoprecipitation followed by liquid chromatography mass spectrometry-based proteomics; adult mouse cardiomyocytes from six wild-type and five knockout animals

B1: adenosine triphosphate synthase F1 sub-unit d (protein, UniProt Q9D3D9 23-168)
chain: AEAAAAPAPAAGPGQMSFTFASPTQVFFDSANVKQVDVPTLTGAFGILASHVPTLQVLRPGLVVVHTEDGTTTKYFVSSGSVTVNADSSVQLLAEEAVTLDMLDLGAARANLEKAQSELSGAADEAARAEIQIRIEANEALVKALE
binding: binds
